Measurements as given in PubChem BioAssay AID445 (National Center for Advancing Translational Sciences (NCATS), 2006).
This is one part of the list. The main result of the screen is listed elsewhere. These columns were measured beside it and carry no call. Most of these compounds were active or inconclusive in the main read-out, so they are no random draw. Words in brackets tell the shape of the fitted curve; partial curves, single points and poor fits give uncertain potencies.

Assay: IkB Signaling
Details: ABC-DLBCL IkBa-CBG/CBR dual luciferase ratio (green luciferase fused to IkBa over red control in OCI-Ly3 lymphoma cells), 4 h
In short: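 Curves were fitted separately to fusion (green), unfused (red) and ratio luminescence, then classed by r2, magnitude and activity. Cells: OCI-Ly3, 4 h compound plus doxycycline at 37C; 10 uM MG-132 defined full response.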

[1] = measured here: control luc red channel unless noted

NC(=O)C1(N2CCCCC2)CCN(C(=O)Nc2ccc(F)cc2)CC1
AC50 [1]: 39.8 µM [falling, single point]

Cc1ccc(C)c(N2CCN(C(=O)C3CCCN(Cc4nc(-c5cccc(Cl)c5)oc4C)C3)CC2)c1 (configuration not stated)
AC50 [1]: 25.1 µM [falling, partial curve]

CCOc1cccc(NC(=O)CSc2ncc(-c3ccccc3)[nH]2)c1
AC50 [1]: 20 µM [falling, partial curve]

CCOc1cccc2sc(N3CCN(C(=O)C4CC4)CC3)nc12
AC50 [1]: 3.16 µM [rising, single point]

Cc1cccc(N2CCN(C(=O)c3ccc4c(c3)N(Cc3cccc(Cl)c3)C(=O)c3ccccc3S4=O)CC2C)c1 (configuration not stated)
AC50 [1]: 2.51 µM [rising, partial curve]

Cc1cc(C)cc(NC(=O)CCCn2c3ccccc3c(=O)c3ccccc32)c1
AC50 [1]: 12.6 µM [falling, partial curve]

Cc1ccc(NC(=O)CCC(=O)N2Cc3ccccc3Oc3ncccc32)cc1F
AC50 [1]: 39.8 µM [falling, single point]

COc1ccc(-n2c(C)cc(C(=O)COC(=O)Cn3cnc4ccccc43)c2C)cc1
AC50 [1]: 10 µM [falling, partial curve]

CCOc1ccc(NC(=O)c2ccc3c(c2)CCN3S(=O)(=O)c2ccc(Cl)cc2)cc1
AC50 [1]: 10 µM [falling, partial curve]

O=C(O)c1c(CNCc2cccc(F)c2)c2ccccc2n1Cc1ccccc1
AC50 [1]: 12.6 µM [falling, partial curve]

O=C(NCC(c1ccc2c(c1)OCO2)N1CCOCC1)C(=O)Nc1cccc(Cl)c1 (configuration not stated)
AC50 [1]: 6.31 µM [falling, partial curve, poor fit]

Fc1cccc(Cl)c1Cn1c(-c2cccs2)nc2ccccc21
AC50 [1]: 31.6 µM [falling, single point]

CCOc1ccc(NC(=O)c2ccc(F)c(S(=O)(=O)N(CC)Cc3ccccc3)c2)cc1
AC50 [1]: 25.1 µM [falling, partial curve]

O=C(CCC1N=C2c3ccccc3N=C(SCc3cccc(F)c3)N2C1=O)NCc1cccs1 (configuration not stated)
AC50 [1]: 25.1 µM [falling, single point]

Cc1ccc(Cl)cc1N1CCN(C(=O)CCNS(=O)(=O)c2ccc3c(c2)CCN3C(=O)C2CC2)CC1
AC50 [1]: 39.8 µM [falling, single point]

Cc1ccc2c3c1C1(C(=O)N3C(C)(C)CC2C)C(C#N)=C(N)Oc2cc(O)ccc21 (configuration not stated)
AC50 [1]: 15.8 µM [falling, partial curve]

COc1ccc(OC)c(NC(=O)c2cc(S(=O)(=O)NCCc3ccc(Cl)cc3)ccc2F)c1
AC50 [1]: 39.8 µM [falling, single point]

CCOc1ccc(OCC)c(NC(=O)c2ccc(-c3ccccc3)s2)c1
AC50 [1]: 2.51 µM [falling, partial curve]

Cc1nc2nc(SCC(=O)NC3CCC(C)CC3)nn2c(C)c1Cc1ccccc1 (configuration not stated)
AC50 [1]: 39.8 µM [falling, single point]

CC(=O)C(Sc1nn(C)c(=S)s1)C(=O)Nc1ccccc1 (configuration not stated)
AC50 [1]: 15.8 µM [falling, partial curve]

CCOc1ccc(CCNC(=O)c2sc3ncccc3c2-n2cccc2)cc1OCC
AC50 [1]: 10 µM [falling, partial curve]

Cc1ccc(N2CC(NC(=O)c3ccc(S(=O)(=O)N4CCCC4)cc3)CC2=O)cc1C (configuration not stated)
AC50 [1]: 1 µM [rising, full curve]

O=C(Nc1ccccc1)[C@@]12C[C@@H]1/C(=N/O)c1ccccc1O2
AC50 [1]: 39.8 µM [falling, single point]

Cc1cc(C)cc(-n2ccn(CC(=O)Nc3cc(C)ccc3C)c(=O)c2=O)c1
AC50 [1]: 25.1 µM [falling, single point]

Cc1cccc(N2CCN(C(=O)CCNS(=O)(=O)c3ccc4c(c3)CCC(=O)N4)CC2)c1C
AC50 [1]: 15.8 µM [falling, partial curve]

Cc1ccc(-c2cn(-c3cccc(Cl)c3)c(S(=O)(=O)CC(=O)Nc3cccc(C)c3)n2)cc1
AC50 [1]: 10 µM [falling, partial curve]

COc1ccc(CCNc2nc(-c3ccc(OC)c(OC)c3)cc(C(F)(F)F)n2)cc1OC
AC50 [1]: 10 µM [falling, partial curve]

CN(C)CCCn1c(N)c(C#N)c2nc(C#N)c(C#N)nc21
AC50 [1]: 25.1 µM [rising, partial curve] [measured here: IkB-luc green channel]

COc1ccc2occ(C(=O)c3ccc(N=C(C)N(C)C)cc3)c2c1
AC50 [1]: 12.6 µM [falling, partial curve]

COc1ccc(CN2CCN(C(=O)CC(C)C)CC2)c2ccccc12
AC50 [1]: 12.6 µM [falling, partial curve]

CSc1cccc(Nc2nc3c(S(=O)(=O)c4ccccc4)nnn3c3ccc(Cl)cc23)c1
AC50 [1]: 25.1 µM [rising, single point]

CCNc1nc(NC(C)C)nc(N(C#N)CCOc2ccc(Cl)cc2Cl)n1
AC50 [1]: 12.6 µM [falling, partial curve]

CCOc1ccc(OCc2ccc(C(=O)O)o2)cc1
AC50 [1]: 2 µM [falling, full curve]

Cc1ccc(C)c(NC(=O)CSc2ncc(S(=O)(=O)c3ccc(C)c(Cl)c3)c(=O)[nH]2)c1
AC50 [1]: 10 µM [falling, partial curve]

O=C(c1ccc2c(c1)N(Cc1ccc(F)cc1)C(=O)c1ccccc1S2=O)N1CCC(Cc2ccccc2)CC1 (configuration not stated)
AC50 [1]: 5.01 µM [falling, partial curve]

CCc1ccc(CNC(=O)c2ccc(NC(=O)N3CCCCc4ccccc43)cc2)cc1
AC50 [1]: 15.8 µM [falling, partial curve]

COc1ccccc1NC(=O)c1cccc(S(=O)(=O)N2CCCCCC2)c1
AC50 [1]: 25.1 µM [falling, single point]

Cc1c(Cl)cccc1NC(=O)Nc1nnc(N2CCCCCC2)s1
AC50 [1]: 20 µM [falling, single point]

COc1ccccc1OCC(=O)Nc1cccc(-c2nc3ccccc3o2)c1
AC50 [1]: 10 µM [falling, partial curve]

CNC(=O)c1ccccc1NC(=O)c1cccc(S(=O)(=O)N2CCC(C)CC2)c1
AC50 [1]: 20 µM [falling, partial curve]

COc1ccc(N2CCN(C(=O)c3cn(CC(C)C)c(=O)c4c3c3ccccc3n4C)CC2)cc1
AC50 [1]: 15.8 µM [falling, partial curve]

CCc1ccc(-c2nn(CC(=O)Nc3ccccc3)c3c2cnc2ccc(F)cc23)cc1
AC50 [1]: 0.0398 µM [rising, full curve, poor fit]

COC(=O)C1=C(C)NC(C)=C([N+](=O)[O-])[C@H]1c1ccccc1C(F)(F)F
AC50 [1]: 50.1 µM [falling, partial curve, poor fit]

CC(C)(C)C1CCc2c(sc(NC(=O)Cn3nnc(-c4ccccc4F)n3)c2C#N)C1 (configuration not stated)
AC50 [1]: 12.6 µM [falling, partial curve]

O=C(Cn1c(=O)c2cccn2c2ccccc21)Nc1cc(F)ccc1F
AC50 [1]: 39.8 µM [falling, single point]

COc1ccc(-c2[nH]ncc2C(=O)NCc2ccccc2C)cc1
AC50 [1]: 0.398 µM [rising, full curve]

Cc1onc(-c2ccccc2Cl)c1C(=O)Oc1cc(F)cc(F)c1
AC50 [1]: 25.1 µM [falling, single point]

COC(=O)c1ccccc1NC(=O)Cn1c(=O)n(-c2cccc(OC)c2)c(=O)c2c(C)c(C(=O)N(C)C)sc21
AC50 [1]: 5.01 µM [rising, partial curve]

CC1(C)CC2CC(C)(CN2c2ncnc3ccccc23)C1 (configuration not stated)
AC50 [1]: 6.31 µM [falling, partial curve]

Clc1cccc(-n2ncc3c(N4CCCCC4)ncnc32)c1
AC50 [1]: 15.8 µM [falling, partial curve]

CCN(c1cccc(C)c1)S(=O)(=O)c1ccc2[nH]cc(C(=O)NCCCOC)c(=O)c2c1
AC50 [1]: 20 µM [falling, partial curve]

CC1=C(C(=O)Nc2cc(-c3cccc(F)c3)[nH]n2)C2(CCCCC2)OC1=O
AC50 [1]: 5.01 µM [falling, partial curve]

CCC1CN(C(=O)N2CCC(C(=O)NCc3cccc(C)c3)CC2)c2ccccc2O1 (configuration not stated)
AC50 [1]: 10 µM [falling, partial curve]

O=C(Cn1c(=O)nc(-c2ccccc2F)c2cc(Cl)ccc21)N1CCN(c2ccccc2F)CC1
AC50 [1]: 15.8 µM [falling, partial curve]

COc1ccc(CNC(=O)c2c3c(nc4ccccc24)C(=O)N(C2CCCCC2)C3)c(OC)c1
AC50 [1]: 12.6 µM [falling, partial curve]

COC(=O)c1scc(-c2ccc(C)cc2)c1S(=O)(=O)Nc1cc(OC)c(OC)c(OC)c1
AC50 [1]: 12.6 µM [falling, partial curve]

CCCCCCCCC(=O)NCc1cc(OC)c(O)cc1I
AC50 [1]: 25.1 µM [falling, partial curve, poor fit]

CCOC(=O)c1ccc(Nc2c(-c3ccc(O)c(OC)c3)nc3nc[nH]n23)cc1
AC50 (measured here: IkB-luc green channel): 25.1 µM [rising, single point]
AC50 (measured here: control luc red channel): 39.8 µM [rising, single point]

COc1ccc(CNc2oc(-c3ccccc3)nc2C#N)cc1
AC50 [1]: 39.8 µM [falling, single point]

COc1cc(NS(=O)(=O)c2ccc3c(c2)CCN3S(C)(=O)=O)cc(OC)c1
AC50 [1]: 39.8 µM [falling, partial curve, poor fit]

Cc1ccccc1-c1nc(CS(=O)(=O)CC(=O)NCC(C)c2ccccc2)c(C)o1 (configuration not stated)
AC50 [1]: 15.8 µM [falling, partial curve]
